Results as given in patent publication US20110145941A1 (LAY LINE GENOMICS S P A, published 2011).
Substitutions are numbered along the chain they refer to. Results are given in words; binding and its absence hold for the method and conditions named. Some results given as binding are weak or reduced against the parent protein; the word gives no strength.

Amino acid sequences for entries named in this document (tags omitted). A change or cut given only in a name is not applied to a line headed by its entry.
UniProt P04629: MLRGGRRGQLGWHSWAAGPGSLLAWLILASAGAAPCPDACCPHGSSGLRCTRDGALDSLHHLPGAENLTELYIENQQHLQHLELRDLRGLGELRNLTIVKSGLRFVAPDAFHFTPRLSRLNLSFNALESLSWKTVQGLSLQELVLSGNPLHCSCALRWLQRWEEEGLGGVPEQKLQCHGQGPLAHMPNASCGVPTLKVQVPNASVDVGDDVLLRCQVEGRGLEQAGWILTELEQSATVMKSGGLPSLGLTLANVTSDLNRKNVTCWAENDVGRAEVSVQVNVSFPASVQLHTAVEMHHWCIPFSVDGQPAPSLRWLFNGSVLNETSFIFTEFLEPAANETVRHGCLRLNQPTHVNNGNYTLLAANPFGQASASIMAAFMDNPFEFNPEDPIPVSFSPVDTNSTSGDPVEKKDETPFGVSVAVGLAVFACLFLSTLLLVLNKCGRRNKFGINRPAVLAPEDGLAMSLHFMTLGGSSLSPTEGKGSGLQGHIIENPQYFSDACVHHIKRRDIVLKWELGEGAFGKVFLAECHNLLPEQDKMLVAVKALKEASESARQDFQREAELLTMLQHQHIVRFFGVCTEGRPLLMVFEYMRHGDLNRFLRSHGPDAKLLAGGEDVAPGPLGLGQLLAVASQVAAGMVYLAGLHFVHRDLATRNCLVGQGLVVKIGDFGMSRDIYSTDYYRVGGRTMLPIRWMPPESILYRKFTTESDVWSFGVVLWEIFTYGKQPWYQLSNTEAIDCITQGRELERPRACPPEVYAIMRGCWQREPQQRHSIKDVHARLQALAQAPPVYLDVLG

B1: BXhVH3VL3 (antibody, human IgG1, V domains shown)
VH: EVQLLESGGGLVQPGGSLRLSCAASGFTFSTYTMSWVRQAPGKRLEWVAYISKGGGSTYYPDTVKGRFTISRDNSKNTLYLQMNSLRAEDTAVYYCARGAMYGNDFFYPMDYWGQGTTVTVSS
VL: QIVLTQSPATLSLSPGERATLSCSASSSVSYMHWYQQKPGQSPRLLIYTTSNLASGIPSRFSGSGSGTFYTLTISSLEPEDFAVYYCHQWSSYPWTFGGGTKLEIK
notes: Human IgG1 constant regions (IgG1 expression vectors); also called hVH3/hVL3
B2: ChimMNAC13 (antibody, V domains shown)
VH: EVKLMESGGGLVQPGGSLKLSCAASGFTFSTYTMSWARQTPEKRLEWVAYISKGGGSTYYPDTVKGRFTISRDNAKNTLYLQMSSLKSEDTALYYCARGAMYGNDFFYPMDYWGQQTSVTVSS
VL: DIVLSQSPAIMSASLGEEITLTCSASSSVSYMHWYQQKSGTSPKLLITTTSNLASGVPSRFSGSGSGTFYSLTISSVEAEDAADYYCHQWSSYPWTFGGGTKLEIK
notes: Corresponds to muMNACEP but has human constant regions instead of mouse constant regions; also called chimNINAC13; mVHEP/mVLEP
B3: BXhVH2VL7 (antibody, human IgG1, V domains shown)
VH: B1 VH with A40T, R98K
VL: B1 VL with F82A, V84D
notes: Human IgG1 constant regions (IgG1 expression vectors); COS-7 supernatant; also called hVH2/hVL7
B4: HuMNACWOv (antibody, V domains shown)
VH: B1 VH with V37A, R44G, T91S, T118L
VL: DIVLTQSPSSLSASVGDRVTITCSASSSVSYMHWYQQKPGQAPKLLIYTTSNLASGVPSRFSGSGSGTDYTLTISSLQPEDVATYYCHQWSSYPWTFGGGTKVEIK
notes: Variant of HuMNACWO whose heavy chain CDR3 is replaced with that of muMNACEP; also called hVHWOv/hVLWO; HuVHWOv/HuVLWO
B5: BXhVH3VL2 (antibody, human IgG1, V domains shown)
VH: B1 VH
VL: B1 VL with Q1E, F69D, Y70F, F82A, V84D, G99Q
notes: Human IgG1 constant regions (IgG1 expression vectors); COS-7 supernatant; also called hVH3/hVL2
B6: BXhVH3VL4 (antibody, human IgG1, V domains shown)
VH: B1 VH
VL: B1 VL with F69D, Y70F, F82A, V84D
notes: Human IgG1 constant regions (IgG1 expression vectors); COS-7 supernatant; also called hVH3/hVL4
B7: BXhVH2VL8 (antibody, human IgG1, V domains shown)
VH: B1 VH with A40T, R98K
VL: B1 VL with R18E, P39S, Q41T, F82A, V84D
notes: Human IgG1 constant regions (IgG1 expression vectors); COS-7 supernatant; also called hVH2/hVL8
B8: BXhVH2VL2 (antibody, human IgG1, V domains shown)
VH: B1 VH with A40T, R98K
VL: B1 VL with Q1E, F69D, Y70F, F82A, V84D, G99Q
notes: Human IgG1 constant regions (IgG1 expression vectors); COS-7 supernatant; also called hVH2/hVL2
B9: BXhVH3VL6 (antibody, human IgG1, V domains shown)
VH: B1 VH
VL: B1 VL with Q1E, R18E, F82A, V84D
notes: Human IgG1 constant regions (IgG1 expression vectors); COS-7 supernatant; also called hVH3/hVL6
B10: BXhVH2VL6 (antibody, human IgG1, V domains shown)
VH: B1 VH with A40T, R98K
VL: B1 VL with Q1E, R18E, F82A, V84D
notes: Human IgG1 constant regions (IgG1 expression vectors); COS-7 supernatant; also called hVH2/hVL6
B11: BXhVH1VL6 (antibody, human IgG1, V domains shown)
VH: B1 VH with Q3K, A40T, R44G, R98K
VL: B1 VL with Q1E, R18E, F82A, V84D
notes: Human IgG1 constant regions (IgG1 expression vectors); COS-7 supernatant; also called hVH1/hVL6
B12: BXhVH1VL8 (antibody, human IgG1, V domains shown)
VH: B1 VH with Q3K, A40T, R44G, R98K
VL: B1 VL with R18E, P39S, Q41T, F82A, V84D
notes: Human IgG1 constant regions (IgG1 expression vectors); COS-7 supernatant; also called hVH1/hVL8
B13: BXhVH3VL1 (antibody, human IgG1, V domains shown)
VH: B1 VH
VL: B1 VL with Q1E, S42A, S59A, F69D, Y70F, G99Q
notes: Human IgG1 constant regions (IgG1 expression vectors); COS-7 supernatant; also called hVH3/hVL1
B14: BXhVH3VL5 (antibody, human IgG1, V domains shown)
VH: B1 VH
VL: B1 VL with F69D, F82A, V84D, G99Q
notes: Human IgG1 constant regions (IgG1 expression vectors); COS-7 supernatant; also called hVH3/hVL5
B15: BXhVH3VL7 (antibody, human IgG1, V domains shown)
VH: B1 VH
VL: B1 VL with F82A, V84D
notes: Human IgG1 constant regions (IgG1 expression vectors); COS-7 supernatant; also called hVH3/hVL7
B16: BXhVH2VL5 (antibody, human IgG1, V domains shown)
VH: B1 VH with A40T, R98K
VL: B1 VL with F69D, F82A, V84D, G99Q
notes: Human IgG1 constant regions (IgG1 expression vectors); COS-7 supernatant; also called hVH2/hVL5
B17: BXhVH2VL4 (antibody, human IgG1, V domains shown)
VH: B1 VH with A40T, R98K
VL: B1 VL with F69D, Y70F, F82A, V84D
notes: Human IgG1 constant regions (IgG1 expression vectors); COS-7 supernatant; also called hVH2/hVL4
B18: BXhVH2VL3 (antibody, human IgG1, V domains shown)
VH: B1 VH with A40T, R98K
VL: B1 VL
notes: Human IgG1 constant regions (IgG1 expression vectors); COS-7 supernatant; also called hVH2/hVL3
B19: BXhVH1VL5 (antibody, human IgG1, V domains shown)
VH: B1 VH with Q3K, A40T, R44G, R98K
VL: B1 VL with F69D, F82A, V84D, G99Q
notes: Human IgG1 constant regions (IgG1 expression vectors); COS-7 supernatant; also called hVH1/hVL5
B20: BXhVH2VL1 (antibody, human IgG1, V domains shown)
VH: B1 VH with A40T, R98K
VL: B1 VL with Q1E, S42A, S59A, F69D, Y70F, G99Q
notes: Human IgG1 constant regions (IgG1 expression vectors); COS-7 supernatant; also called hVH2/hVL1
B21: BXhVH1VL2 (antibody, human IgG1, V domains shown)
VH: B1 VH with Q3K, A40T, R44G, R98K
VL: B1 VL with Q1E, F69D, Y70F, F82A, V84D, G99Q
notes: Human IgG1 constant regions (IgG1 expression vectors); COS-7 supernatant; also called hVH1/hVL2
B22: BXhVH3VL8 (antibody, human IgG1, V domains shown)
VH: B1 VH
VL: B1 VL with R18E, P39S, Q41T, F82A, V84D
notes: Human IgG1 constant regions (IgG1 expression vectors); COS-7 supernatant; also called hVH3/hVL8
B23: BXhVH1VL7 (antibody, human IgG1, V domains shown)
VH: B1 VH with Q3K, A40T, R44G, R98K
VL: B1 VL with F82A, V84D
notes: Human IgG1 constant regions (IgG1 expression vectors); COS-7 supernatant; also called hVH1/hVL7
B24: BXhVH1VL3 (antibody, human IgG1, V domains shown)
VH: B1 VH with Q3K, A40T, R44G, R98K
VL: B1 VL
notes: Human IgG1 constant regions (IgG1 expression vectors); COS-7 supernatant; also called hVH1/hVL3
B25: BXhVH1VL1 (antibody, human IgG1, V domains shown)
VH: B1 VH with Q3K, A40T, R44G, R98K
VL: B1 VL with Q1E, S42A, S59A, F69D, Y70F, G99Q
notes: Human IgG1 constant regions (IgG1 expression vectors); COS-7 supernatant; also called hVH1/hVL1
B26: BXhVH1VL4 (antibody, human IgG1, V domains shown)
VH: B1 VH with Q3K, A40T, R44G, R98K
VL: B1 VL with F69D, Y70F, F82A, V84D
notes: Human IgG1 constant regions (IgG1 expression vectors); COS-7 supernatant; also called hVH1/hVL4
B27: HuMNACWO (antibody, V domains shown)
VH: B1 VH with V37A, R44G, T91S, Y102F, Y108F, Y112R, T118L
VL: B4 VL
notes: Prior art humanised antibody; also called humanised antibody MNAC13 disclosed in WO 05/061540; HuVHWO/HuVLWO

Target: TrkA-IgG (UniProt P04629)
Assay: ELISA, TrkA-IgG coated at 1 µg/ml, COS-7 supernatant at 5 ng/ml antibody, HRP-labelled secondary antibody, OD450/630 nm

binding	Binder
binds	B1

Target: T1, TrkA-IgG (UniProt P04629 33-423, limits assumed)
T1 construct: also called specific antigen TrkA-IgG; not shown: IgG part of the fusion
Assay: as above

binding	Binder
binds	B2
binds	B3
binds	B4
binds	B5
binds	B6
binds	B7
binds	B8
binds	B9
binds	B10
binds	B11
binds	B12
binds	B13
binds	B14
binds	B15
binds	B16
binds	B17
binds	B18
binds	B19
binds	B20
binds	B21
binds	B22
binds	B23
binds	B24
binds	B25
binds	B26

Target: T1, TrkA-IgG
Assay: ELISA, TrkA-IgG coated at 1 µg/ml, antibody at 5 ng/ml, HRP-labelled secondary antibody, OD450/630 nm

binding	Binder
binds	B27

Target: T2, human TrkA receptor on the cell surface (human, UniProt P04629 33-796)
Assay: flow cytometry on TF-1 cells, two separate experiments (FIG. 4)

binding	Binder
binds	B1

Target: T2, human TrkA receptor on the cell surface
Assay: flow cytometry on TF-1 cells (FIG. 4)

binding	Binder
binds	B1

Target: T2, human TrkA receptor on the cell surface
Assay: flow cytometry on TF-1 cells, PE-labelled secondary antibody, two experiments

binding	Binder
binds	B1

Target: T2, human TrkA receptor on the cell surface
Assay: flow cytometry on TF-1 cells

binding	Binder
binds	B3
binds	B5
binds	B6
binds	B7
binds	B8
binds	B9
binds	B10
binds	B11
binds	B12
binds	B13
binds	B14
binds	B15
binds	B16
binds	B17
binds	B18
binds	B19
binds	B20
binds	B21
binds	B22
binds	B23
binds	B24
binds	B25
binds	B1
binds	B26
